Source: patent publication US9497965B2, “Pesticidal compounds” (Syngenta Participations AG, priority 2011, dated 2016)
Some of these results come from one statement about several compounds together.

Key:
[1] = tested on: Meloidogyne spp.; test: Meloidogyne spp. (root-knot nematode) contact activity, preventive, pouch test; format: in vivo; conditions: 200 ppm test solution on cucumber cv. Toshka seed in pouch; 3000 eggs; galls per root system after twelve days
[2] = tested on: Meloidogyne spp.; test: Meloidogyne spp. (root-knot nematode) contact activity, preventive, drench test; format: in vivo; conditions: 20 ppm, 5 ml WP10 suspension drench on cucumber cv. Toshka pots; 3000 eggs of M. incognita; Zeck's gall index after fourteen days

SMILES | reduction of galling compared to the untreated control [1] | reduction of galling compared to the untreated control [2]
Cc1cccc(C(=O)NCC2(c3ccccc3Cl)CC2)c1C [A.5] | greater than 75% | 
O=C(NCC1(c2c(F)cc(C3CC3)cc2F)CC1)c1ccccc1C(F)(F)F [A.58, N-[[1-(4-cyclopropyl-2,6-difluoro-phenyl)cyclopropyl]methyl]-2-(trifluoromethyl)benzamide] |  | greater than 75%
Cc1ccc(C)c(C(=O)NCC2(c3ccccc3C)CC2)c1 [A.6] | greater than 75% | greater than 75%
Cc1ccc(C)c(C(=O)NCC2(c3ccccc3Cl)CC2)c1 [A.1] | greater than 75% | greater than 75%
Cc1ccccc1C1(CNC(=O)c2ncccc2C)CC1 [A.9, 3-Methyl-pyridine-2-carboxylic acid (1-o-tolyl-cyclopropylmethyl)-amide] | greater than 75% | 
N#Cc1cc(F)c(C2(CNC(=O)c3ccccc3C(F)(F)F)CC2)c(F)c1 [A.57, N-[[1-(4-cyano-2,6-difluoro-phenyl)cyclopropyl]methyl]-2-(trifluoromethyl)benzamide] |  | greater than 75%
Cc1ccccc1C1(CNC(=O)c2cccc(C)c2C)CC1 [A.11] | greater than 75% | 
O=C(NCC1(c2cc(F)c(F)c(F)c2)CC1)c1nccnc1Cl [A.66] | greater than 75% | greater than 75%
Cc1ccccc1C1(CNC(=O)c2ncccn2)CC1 [A.2] | greater than 75% | greater than 75%
O=C(NCC1(c2ccc(C(F)(F)F)cc2F)CC1)c1ncccc1Cl [A.37, 3-chloro-N-[[1-[2-fluoro-4-(trifluoromethyl)phenyl]cyclopropyl]methyl]pyridine-2-carboxamide] |  | greater than 75%
O=C(NCC1(c2ccccc2Cl)CC1)c1ncccn1 [A.7] | greater than 75% | greater than 75%
Cc1cccnc1C(=O)NCC1(c2ccccc2Cl)CC1 [A.12] | greater than 75% | greater than 75%
O=C(NCC1(c2ccccc2Cl)CC1)c1ncccc1Cl [A.3] | greater than 75% | greater than 75%
